Measured values taken from the supplement of paper PMC10849652.
Some of the results follow.

Protein sequences, listed by entry. Tags and fused reporters are not part of them. Lines headed by an entry give the natural chain unless they say otherwise; changes in a name come on top.
UniProt P08294: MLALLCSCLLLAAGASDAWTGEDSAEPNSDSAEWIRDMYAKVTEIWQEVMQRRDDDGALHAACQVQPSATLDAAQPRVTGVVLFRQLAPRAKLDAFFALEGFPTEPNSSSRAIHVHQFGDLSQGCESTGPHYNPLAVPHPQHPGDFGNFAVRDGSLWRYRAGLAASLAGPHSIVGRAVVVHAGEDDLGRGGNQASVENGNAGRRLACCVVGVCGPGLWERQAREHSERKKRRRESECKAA
UniProt Q99717: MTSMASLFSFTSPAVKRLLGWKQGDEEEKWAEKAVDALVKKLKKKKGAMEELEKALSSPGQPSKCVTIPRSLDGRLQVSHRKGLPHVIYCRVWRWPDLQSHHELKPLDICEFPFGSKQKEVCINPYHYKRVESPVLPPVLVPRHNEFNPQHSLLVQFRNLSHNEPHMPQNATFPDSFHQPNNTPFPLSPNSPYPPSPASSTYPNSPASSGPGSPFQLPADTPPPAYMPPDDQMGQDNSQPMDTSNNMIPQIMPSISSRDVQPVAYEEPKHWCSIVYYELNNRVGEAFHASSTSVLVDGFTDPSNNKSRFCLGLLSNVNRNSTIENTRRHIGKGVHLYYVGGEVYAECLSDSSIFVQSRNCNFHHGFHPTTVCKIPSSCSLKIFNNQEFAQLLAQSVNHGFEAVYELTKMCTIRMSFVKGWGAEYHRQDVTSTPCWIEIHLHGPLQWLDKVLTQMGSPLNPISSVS
UniProt Q3SY56: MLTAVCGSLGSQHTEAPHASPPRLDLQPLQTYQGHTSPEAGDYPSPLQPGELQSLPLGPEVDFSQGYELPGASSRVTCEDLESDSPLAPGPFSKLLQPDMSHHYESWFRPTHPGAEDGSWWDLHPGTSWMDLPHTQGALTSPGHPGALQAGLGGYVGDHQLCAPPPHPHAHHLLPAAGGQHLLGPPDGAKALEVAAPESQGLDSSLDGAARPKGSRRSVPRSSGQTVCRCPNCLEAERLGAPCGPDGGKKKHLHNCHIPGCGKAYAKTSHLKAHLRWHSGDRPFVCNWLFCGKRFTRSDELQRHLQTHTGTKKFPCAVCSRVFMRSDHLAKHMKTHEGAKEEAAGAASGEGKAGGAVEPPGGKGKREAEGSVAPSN
UniProt Q7Z3B0: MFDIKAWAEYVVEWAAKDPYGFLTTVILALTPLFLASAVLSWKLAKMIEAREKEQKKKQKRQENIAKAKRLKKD
UniProt Q9UPR3: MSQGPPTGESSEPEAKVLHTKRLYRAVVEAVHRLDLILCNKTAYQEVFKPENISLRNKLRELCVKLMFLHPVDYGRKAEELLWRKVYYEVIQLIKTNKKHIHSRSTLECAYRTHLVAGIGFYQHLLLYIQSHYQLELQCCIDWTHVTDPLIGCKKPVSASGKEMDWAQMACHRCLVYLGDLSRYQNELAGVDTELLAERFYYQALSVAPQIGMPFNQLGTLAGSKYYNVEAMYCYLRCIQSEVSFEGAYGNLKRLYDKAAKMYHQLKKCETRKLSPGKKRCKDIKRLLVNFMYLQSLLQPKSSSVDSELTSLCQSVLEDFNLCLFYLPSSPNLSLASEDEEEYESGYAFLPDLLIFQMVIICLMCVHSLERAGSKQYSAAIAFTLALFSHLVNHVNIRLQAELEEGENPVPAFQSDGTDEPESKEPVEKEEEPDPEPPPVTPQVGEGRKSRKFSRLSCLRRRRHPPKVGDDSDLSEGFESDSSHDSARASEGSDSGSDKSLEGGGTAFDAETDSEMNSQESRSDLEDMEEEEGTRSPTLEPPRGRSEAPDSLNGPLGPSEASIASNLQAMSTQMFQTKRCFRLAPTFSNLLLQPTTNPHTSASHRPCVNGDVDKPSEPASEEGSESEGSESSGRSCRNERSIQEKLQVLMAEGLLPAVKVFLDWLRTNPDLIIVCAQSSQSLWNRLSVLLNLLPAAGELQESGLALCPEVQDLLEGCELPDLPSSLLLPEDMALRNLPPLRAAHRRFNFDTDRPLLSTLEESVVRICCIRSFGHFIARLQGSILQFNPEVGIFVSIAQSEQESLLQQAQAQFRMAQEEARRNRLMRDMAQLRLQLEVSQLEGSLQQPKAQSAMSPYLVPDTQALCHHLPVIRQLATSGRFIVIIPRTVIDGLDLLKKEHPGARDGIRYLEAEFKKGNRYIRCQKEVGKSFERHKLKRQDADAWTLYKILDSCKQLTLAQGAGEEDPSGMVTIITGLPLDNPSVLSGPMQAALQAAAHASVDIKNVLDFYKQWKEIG
UniProt Q9NRG4: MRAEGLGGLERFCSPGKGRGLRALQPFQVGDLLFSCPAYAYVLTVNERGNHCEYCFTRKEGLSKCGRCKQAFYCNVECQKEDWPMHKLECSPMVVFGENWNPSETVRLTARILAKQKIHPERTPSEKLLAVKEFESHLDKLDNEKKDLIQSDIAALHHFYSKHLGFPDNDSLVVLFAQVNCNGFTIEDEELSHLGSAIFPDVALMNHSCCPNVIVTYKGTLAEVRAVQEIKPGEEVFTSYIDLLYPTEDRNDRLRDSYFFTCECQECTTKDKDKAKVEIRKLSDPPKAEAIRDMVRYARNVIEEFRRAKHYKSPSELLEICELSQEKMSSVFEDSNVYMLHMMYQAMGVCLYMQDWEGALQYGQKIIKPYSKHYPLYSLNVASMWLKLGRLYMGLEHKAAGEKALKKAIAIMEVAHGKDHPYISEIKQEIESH
UniProt Q9NXE4: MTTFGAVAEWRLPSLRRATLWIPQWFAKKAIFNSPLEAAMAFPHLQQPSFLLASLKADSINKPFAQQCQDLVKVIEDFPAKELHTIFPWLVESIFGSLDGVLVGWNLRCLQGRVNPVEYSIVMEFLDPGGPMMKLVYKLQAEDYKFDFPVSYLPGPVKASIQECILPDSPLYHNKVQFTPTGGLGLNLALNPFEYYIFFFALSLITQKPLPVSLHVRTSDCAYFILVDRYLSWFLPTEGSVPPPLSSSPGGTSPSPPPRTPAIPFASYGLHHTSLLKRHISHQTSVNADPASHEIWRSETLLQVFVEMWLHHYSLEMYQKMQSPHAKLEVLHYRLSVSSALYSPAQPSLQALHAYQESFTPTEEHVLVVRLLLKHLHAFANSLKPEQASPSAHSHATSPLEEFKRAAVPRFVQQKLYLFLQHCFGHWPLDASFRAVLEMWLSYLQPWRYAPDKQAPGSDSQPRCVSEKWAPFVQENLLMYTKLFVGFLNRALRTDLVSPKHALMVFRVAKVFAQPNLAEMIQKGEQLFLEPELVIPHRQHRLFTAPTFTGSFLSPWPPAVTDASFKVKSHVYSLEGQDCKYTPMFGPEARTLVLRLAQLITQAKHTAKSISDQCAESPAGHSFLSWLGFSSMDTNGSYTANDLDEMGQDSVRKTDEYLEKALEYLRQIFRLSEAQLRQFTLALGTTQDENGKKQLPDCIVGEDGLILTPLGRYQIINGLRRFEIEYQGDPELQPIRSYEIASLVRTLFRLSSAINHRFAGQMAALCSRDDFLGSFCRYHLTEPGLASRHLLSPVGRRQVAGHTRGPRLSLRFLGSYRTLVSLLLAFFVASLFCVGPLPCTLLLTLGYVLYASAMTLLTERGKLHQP
UniProt B2RUZ4: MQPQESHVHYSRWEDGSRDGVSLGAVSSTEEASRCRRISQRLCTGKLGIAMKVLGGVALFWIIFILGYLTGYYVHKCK
UniProt Q9Y2E8: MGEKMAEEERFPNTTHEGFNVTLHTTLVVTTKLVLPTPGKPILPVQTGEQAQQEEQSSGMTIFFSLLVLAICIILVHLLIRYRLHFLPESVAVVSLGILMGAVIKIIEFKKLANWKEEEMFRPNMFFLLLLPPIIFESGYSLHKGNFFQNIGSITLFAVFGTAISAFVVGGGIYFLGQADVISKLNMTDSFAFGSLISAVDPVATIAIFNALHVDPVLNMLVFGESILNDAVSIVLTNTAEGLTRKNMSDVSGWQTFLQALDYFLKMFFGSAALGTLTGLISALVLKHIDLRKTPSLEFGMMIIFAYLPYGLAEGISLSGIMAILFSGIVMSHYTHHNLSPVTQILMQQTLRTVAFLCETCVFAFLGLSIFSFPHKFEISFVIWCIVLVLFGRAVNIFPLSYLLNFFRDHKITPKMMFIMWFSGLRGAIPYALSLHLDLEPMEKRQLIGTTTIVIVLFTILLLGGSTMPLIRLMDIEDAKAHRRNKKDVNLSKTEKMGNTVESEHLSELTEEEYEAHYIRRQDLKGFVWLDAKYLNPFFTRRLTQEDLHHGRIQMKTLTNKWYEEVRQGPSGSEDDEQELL
UniProt Q15036: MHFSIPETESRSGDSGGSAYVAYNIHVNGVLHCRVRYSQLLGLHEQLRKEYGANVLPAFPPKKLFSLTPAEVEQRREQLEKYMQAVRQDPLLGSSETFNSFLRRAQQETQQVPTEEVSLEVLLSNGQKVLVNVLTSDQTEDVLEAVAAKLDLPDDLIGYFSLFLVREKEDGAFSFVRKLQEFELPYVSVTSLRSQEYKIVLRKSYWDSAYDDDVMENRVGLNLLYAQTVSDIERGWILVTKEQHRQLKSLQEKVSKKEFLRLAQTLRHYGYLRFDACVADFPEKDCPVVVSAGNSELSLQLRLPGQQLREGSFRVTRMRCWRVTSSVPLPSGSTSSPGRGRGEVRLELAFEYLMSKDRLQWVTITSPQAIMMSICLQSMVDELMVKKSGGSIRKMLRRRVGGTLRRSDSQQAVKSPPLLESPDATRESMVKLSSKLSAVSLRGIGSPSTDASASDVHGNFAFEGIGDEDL
UniProt Q00796: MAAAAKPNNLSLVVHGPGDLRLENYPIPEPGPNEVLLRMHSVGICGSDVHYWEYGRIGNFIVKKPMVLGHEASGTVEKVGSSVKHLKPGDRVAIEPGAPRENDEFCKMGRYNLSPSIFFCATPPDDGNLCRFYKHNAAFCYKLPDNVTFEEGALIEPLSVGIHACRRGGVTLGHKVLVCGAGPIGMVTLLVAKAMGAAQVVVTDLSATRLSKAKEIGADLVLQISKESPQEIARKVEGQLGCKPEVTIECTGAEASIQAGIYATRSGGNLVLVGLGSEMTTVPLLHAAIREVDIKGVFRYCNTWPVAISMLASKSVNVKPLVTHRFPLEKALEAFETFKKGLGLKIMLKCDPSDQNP
UniProt Q9H3E2: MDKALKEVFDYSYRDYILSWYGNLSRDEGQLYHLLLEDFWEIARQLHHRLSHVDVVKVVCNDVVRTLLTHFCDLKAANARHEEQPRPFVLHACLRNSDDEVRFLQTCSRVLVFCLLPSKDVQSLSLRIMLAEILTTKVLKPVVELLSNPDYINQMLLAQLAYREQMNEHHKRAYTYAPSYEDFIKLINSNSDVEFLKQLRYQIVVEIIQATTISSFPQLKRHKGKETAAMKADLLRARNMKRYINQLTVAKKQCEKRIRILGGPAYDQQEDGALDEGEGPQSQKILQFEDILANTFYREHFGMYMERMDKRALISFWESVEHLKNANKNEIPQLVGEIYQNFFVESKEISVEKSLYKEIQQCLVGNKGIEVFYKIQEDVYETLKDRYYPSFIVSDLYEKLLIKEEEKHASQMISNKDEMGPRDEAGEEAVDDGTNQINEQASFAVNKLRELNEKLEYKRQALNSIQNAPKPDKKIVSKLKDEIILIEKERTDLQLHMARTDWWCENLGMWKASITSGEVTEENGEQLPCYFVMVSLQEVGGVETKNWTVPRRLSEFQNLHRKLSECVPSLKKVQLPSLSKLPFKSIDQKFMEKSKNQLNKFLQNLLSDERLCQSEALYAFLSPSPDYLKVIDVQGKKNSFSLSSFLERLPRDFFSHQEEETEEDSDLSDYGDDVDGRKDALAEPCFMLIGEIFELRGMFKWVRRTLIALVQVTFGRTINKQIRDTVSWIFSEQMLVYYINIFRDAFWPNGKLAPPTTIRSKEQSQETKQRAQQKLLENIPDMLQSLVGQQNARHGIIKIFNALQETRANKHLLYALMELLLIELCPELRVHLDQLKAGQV
UniProt Q9H0W8: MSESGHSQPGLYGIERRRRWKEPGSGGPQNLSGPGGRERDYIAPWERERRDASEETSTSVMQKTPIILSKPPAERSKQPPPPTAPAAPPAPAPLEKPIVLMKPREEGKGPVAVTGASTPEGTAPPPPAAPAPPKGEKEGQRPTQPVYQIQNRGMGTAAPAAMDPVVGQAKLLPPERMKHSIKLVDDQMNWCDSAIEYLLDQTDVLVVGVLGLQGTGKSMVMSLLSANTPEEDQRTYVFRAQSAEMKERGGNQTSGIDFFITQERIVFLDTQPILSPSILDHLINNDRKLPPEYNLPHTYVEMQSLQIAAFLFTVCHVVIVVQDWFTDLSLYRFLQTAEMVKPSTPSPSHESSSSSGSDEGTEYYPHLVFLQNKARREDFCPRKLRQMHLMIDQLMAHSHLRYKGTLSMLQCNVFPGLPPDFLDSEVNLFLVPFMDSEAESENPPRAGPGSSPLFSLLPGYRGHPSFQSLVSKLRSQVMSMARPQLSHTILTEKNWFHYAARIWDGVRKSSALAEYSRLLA
UniProt P00441, whole entry, looked up: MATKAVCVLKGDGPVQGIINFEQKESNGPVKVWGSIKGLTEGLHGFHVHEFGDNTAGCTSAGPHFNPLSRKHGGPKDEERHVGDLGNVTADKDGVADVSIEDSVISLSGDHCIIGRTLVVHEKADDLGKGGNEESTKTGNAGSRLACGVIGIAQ

What was measured:
Experiment in all cases: log2 fold change, soluble protein after heating vs DMSO (PISA); higher = thermal stabilisation; K562 cells, 10 uM, 30 min; active = over 0.2 and 3.5 SD of the protein, either way, in both replicates (recomputed)
[1] = compound: NC(=O)Nc1cc(-c2cccc(F)c2)sc1C(=O)N[C@H]1CCCNC1
Procedure, shortened: (§1)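 K562 cells at 2×10^6 cells/mL were exposed to 10 μM compound for 30 min, then aliquots were heated for 3 min across 48°C-58°C, pooled, and extracted in PBS containing 0.5% NP-40 at 4°C. The supernatant after 21,000xg for 90 min was taken as soluble protein and measured by TMTpro 16plex LC-MS/MS with channel sums equalised. Thermal stability is reported relative to control samples, with values from duplicates. Fold changes are given on a log2 scale.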

[2] = compound: NC(=O)c1cnc(N[C@@H]2CCCC[C@@H]2N)nc1Nc1cccc(-n2nccn2)c1
Procedure, shortened: as §1

[3] = compound: NC1(c2ccc(-c3nc4ccn5c(=O)[nH]nc5c4cc3-c3ccccc3)cc2)CCC1
Procedure, shortened: as §1

[4] = compound: NCC(=O)Nc1ccc(-n2nc(C(F)(F)F)cc2-c2ccc3c(ccc4ccccc43)c2)cc1
Procedure, shortened: as §1

entinostat = compound: Nc1ccccc1NC(=O)c1ccc(CNC(=O)OCc2cccnc2)cc1 [entinostat]
Procedure, shortened: as §1

vorinostat = compound: O=C(CCCCCCC(=O)Nc1ccccc1)NO [vorinostat]
Procedure, shortened: as §1

silmitasertib = compound: O=C(O)c1ccc2c(c1)nc(Nc1cccc(Cl)c1)c1ccncc12 [silmitasertib]
Procedure, shortened: as §1

citarinostat = compound: O=C(CCCCCCNC(=O)c1cnc(N(c2ccccc2)c2ccccc2Cl)nc1)NO [citarinostat]
Procedure, shortened: as §1

[5] = compound: c1cc(OCCN2CCCCC2)cc(-c2n[nH]c3ccc(-c4nnc[nH]4)cc23)c1
Procedure, shortened: as §1

[6] = compound: O=C1NC(=O)C(c2cnc3ccccn23)=C1c1cn2c3c(cc(F)cc13)CN(C(=O)N1CCCCC1)CC2
Procedure, shortened: as §1

Measured: log2 fold change

SOD3 (UniProt P08294)
inactive: [1] -0.029 | [2] 0.018 | [3] 0.062 | [4] 0.056 | entinostat 0.094 | vorinostat -0.142 | silmitasertib -0.004

SMPD1 (UniProt P17405)
inactive: [1] 0.106 | [2] 0.182 | [3] -0.11 | [4] -0.521 | entinostat -0.097 | vorinostat -0.098 | silmitasertib -0.341

SPAG9 isoform 4 (UniProt O60271)
inactive: [1] -0.101 | [2] -0.164 | [3] -0.09 | [4] -0.199 | entinostat 0.034 | citarinostat -0.048 | silmitasertib 0.014 | [5] -0.017

SMAD5 (UniProt Q99717)
inactive: [1] -0.008 | [2] 0.073 | [3] 0.066 | [4] -0.022 | entinostat 0.124 | vorinostat 0.072 | silmitasertib 0.137 | [6] -0.143

Two neighbouring records from above, for reference:
SPAG9 isoform 4 (UniProt O60271)
inactive: [1] -0.101 | [2] -0.164 | [3] -0.09 | [4] -0.199 | entinostat 0.034 | citarinostat -0.048 | silmitasertib 0.014 | [5] -0.017

SMAD5 (UniProt Q99717)
inactive: [1] -0.008 | [2] 0.073 | [3] 0.066 | [4] -0.022 | entinostat 0.124 | vorinostat 0.072 | silmitasertib 0.137 | [6] -0.143

Remaining list, next part.

SP6 (UniProt Q3SY56)
inactive: [1] -0.062 | [2] 0.007 | [3] -0.144 | [4] 0.137 | entinostat -0.056 | citarinostat -0.104 | silmitasertib -0.021 | [6] -0.016 | [5] 0.101

SMAD4 (UniProt Q13485)
inactive: [1] 0.004 | [2] -0.03 | [3] -0.003 | [4] -0.003 | entinostat -0.013 | vorinostat -0.01 | citarinostat 0.057 | silmitasertib -0.019 | [6] -0.092 | [5] -0.019

SOS1 (UniProt Q07889)
inactive: [1] 0.016 | [2] 0.069 | [3] -0.021 | entinostat -0.008 | citarinostat -0.052 | silmitasertib 0.09 | [6] -0.017 | [5] -0.033

SNTA1 (UniProt Q13424)
inactive: [1] 0.026 | [2] -0.059 | [3] -0.105 | [4] -0.047 | entinostat -0.007 | vorinostat -0.093 | silmitasertib 0.195 | [6] 0.084

SMIM15 (UniProt Q7Z3B0)
inactive: [1] 0.161 | [2] -0.027 | [3] 0.102 | [4] 0.099 | entinostat 0.045 | vorinostat -0.001 | citarinostat 0.133 | silmitasertib -0.048 | [6] 0.216 | [5] -0.068

SNRPB isoform 3 (UniProt P14678)
inactive: [1] 0.042 | [2] 0.09 | [3] 0.078 | [4] 0.099 | entinostat -0.073 | vorinostat -0.061 | citarinostat -0.021 | silmitasertib 0.073 | [6] 0.153 | [5] -0.036

SMG5 (UniProt Q9UPR3)
inactive: [1] 0.065 | [2] -0.254 | [3] 0.146 | [4] -0.038 | entinostat 0.075 | silmitasertib -0.001 | [6] 0.06

SMYD2 (UniProt Q9NRG4)
inactive: [1] 0.09 | [2] -0.122 | [3] -0.195 | [4] -0.123 | entinostat 0.028 | vorinostat 0.074 | silmitasertib 0.079 | [6] 0.09

SMARCE1 (UniProt Q969G3)
inactive: [1] 0.05 | [2] 0.096 | [3] 0.218 | [4] 0.707 | entinostat 0.076 | vorinostat 0.088 | citarinostat 0 | silmitasertib 0.211 | [6] -0.008 | [5] -0.016

SNTB2 (UniProt Q13425)
inactive: [1] -0.072 | [2] -0.024 | [4] -0.081 | entinostat -0.033 | vorinostat 0.021 | citarinostat 0.031 | [6] -0.002 | [5] 0.031

SLFN14 (UniProt P0C7P3)
inactive: [1] 0.011 | [2] 0.108 | [3] 0.377 | [4] 0.277 | entinostat 0.033 | vorinostat -0.081 | silmitasertib -0.047 | [6] -0.002

SMPD4 isoform 4 (UniProt Q9NXE4)
inactive: [1] -0.008 | [2] -0.075 | [3] -0.141 | [4] -0.059 | entinostat 0.033 | vorinostat 0.084 | citarinostat -0.039 | silmitasertib 0.085 | [6] 0.012 | [5] 0.268

SMIM1 (UniProt B2RUZ4)
inactive: [1] 0.271 | [2] -0.047 | [3] -0.162 | entinostat 0.297 | vorinostat 0.01 | citarinostat 0.122 | silmitasertib 0.049 | [5] 0.121

SLC9A8 isoform 2 (UniProt Q9Y2E8)
inactive: [1] -0.007 | [2] -0.092 | [3] -0.147 | [4] -0.018 | entinostat -0.002 | citarinostat 0.138 | silmitasertib 0.008 | [6] -0.052 | [5] -0.139

SMARCC1 (UniProt Q92922)
inactive: [1] -0.006 | [2] -0.032 | [3] -0.012 | [4] -0.115 | entinostat -0.009 | vorinostat 0.178 | citarinostat 0.049 | silmitasertib 0.14 | [6] -0.128 | [5] -0.28

SNX17 (UniProt Q15036)
inactive: [1] -0.12 | [2] -0.155 | [4] 0.003 | entinostat -0.012 | vorinostat -0.018 | citarinostat -0.085 | [6] 0.009 | [5] 0.042

SOX5 (UniProt P35711)
inactive: [1] 0.035 | [2] -0.064 | [3] -0.015 | [4] 0.03 | entinostat -0.129 | silmitasertib 0.018

SNX15 (UniProt Q9NRS6)
inactive: [1] 0.106 | [2] -0.135 | [3] -0.048 | [4] -0.133 | entinostat 0.061 | citarinostat 0.113 | silmitasertib 0.276 | [5] -0.073
active: vorinostat 0.436

SMG8 isoform 2 (UniProt Q8ND04)
inactive: [1] 0.121 | [2] 0.124 | [4] -0.055 | entinostat -0.047 | vorinostat 0.025 | citarinostat 0.041 | [6] 0.233 | [5] 0.044

SMYD3 (UniProt Q9H7B4)
inactive: [1] -0.116 | [2] -0.158 | [3] -0.082 | [4] 0.024 | entinostat 0.164 | vorinostat 0.104 | silmitasertib 0.013 | [6] 0.085

SMCR8 (UniProt Q8TEV9)
inactive: [1] 0.036 | [2] -0.004 | [3] -0.012 | entinostat -0.005 | vorinostat 0.055 | citarinostat -0.006 | silmitasertib -0.017 | [6] -0.022 | [5] 0.061

SNX8 (UniProt Q9Y5X2)
inactive: [1] 0 | [2] -0.052 | [3] -0.03 | [4] -0.001 | entinostat -0.032 | vorinostat 0.019 | citarinostat 0.004 | silmitasertib 0.045 | [6] -0.036 | [5] -0.022

SMC5 (UniProt Q8IY18)
inactive: [1] 0.057 | [2] -0.034 | [3] -0.083 | [4] -0.051 | entinostat -0.033 | vorinostat 0.017 | citarinostat -0.021 | silmitasertib 0.052 | [6] -0.1 | [5] -0.051

SORD (UniProt Q00796)
inactive: [1] -0.006 | [2] -0.003 | [3] 0.014 | [4] 0.004 | entinostat -0.01 | vorinostat -0.017 | citarinostat 0.025 | silmitasertib -0.013 | [6] -0.024 | [5] 0.006

SNX25 (UniProt Q9H3E2)
inactive: [1] -0.11 | [2] 0.128 | [3] -0.211 | entinostat -0.013 | silmitasertib -0.04

SMG9 (UniProt Q9H0W8)
inactive: [1] -0.018 | [2] -0.001 | [3] -0.073 | [4] 0.011 | entinostat -0.052 | vorinostat 0.006 | silmitasertib -0.239 | [6] -0.029

SOD1 (UniProt P00441)
inactive: [1] -0.018 | [2] 0.002 | [3] 0.038 | [4] 0.005 | entinostat 0.008 | vorinostat -0.021 | citarinostat 0.011 | silmitasertib -0.056 | [6] 0.007 | [5] -0.04

SMYD5 (UniProt Q6GMV2)
inactive: [1] 0.03 | [2] -0.044 | [3] 0.018 | [4] -0.005 | entinostat 0.018 | vorinostat -0.011 | citarinostat 0.044 | silmitasertib -0.014 | [6] -0.097 | [5] 0.051
